PubChem BioAssay AID1259405 | NCATS, 2018

- Purpose: 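Silenced genes that increase secreted GFP made by CHO cells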 (primary screen)
- Cell system: Chinese hamster CHO-K1 ovary cells with stable secreted eGFP expression
- Reagent: single siRNA against mouse genes, 0.8 pmol siRNA per well (2 µl of 400 nM stock)
- Duration: 3 days
- Read-out: 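Percent of the per-plate non-targeting control median for intracellular GFP per well by laser scanning cytometry and for cell viability by ATP luminescence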
- Direction: GFP, % of control: higher = more GFP per well, higher productivity
- Hit rule: 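a knock-down is called active if GFP reaches 120% or more of non-targeting control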
The deposit covers about 50,000 reagents; this is a part drawn at random. In the full data, about 4,000 (8%) got an active call. 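Mouse siRNA library applied to hamster cells; one well for each siRNA.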 Reagents against one gene are numbered here. Further read-outs or replicates are left out here.

GFP, % of control, by target gene and reagent
Tmem254: #1 101 inactive; #2 0.141 inactive; #3 164 active
Vps52: #1 105 inactive; #2 205 active; #3 101 inactive
Gtf3a: #1 93.1 inactive; #2 125 active; #3 122 active
C3: #1 98.5 inactive; #2 70.5 inactive; #3 69.9 inactive
Mtpap: #1 124 active; #2 62.2 inactive; #3 126 active
Wfdc2: #1 45.1 inactive; #2 110 inactive; #3 74.1 inactive
Idh3g: #1 82.3 inactive; #2 62.3 inactive; #3 112 inactive
Speg: #1 115 inactive; #2 40.4 inactive; #3 83.2 inactive
Ptgs1: #1 120 inactive; #2 81.4 inactive; #3 112 inactive
Selenok: #1 93.2 inactive; #2 111 inactive; #3 58.4 inactive
Cdh13: #1 78 inactive; #2 87.5 inactive; #3 55.7 inactive
Clcn3: #1 93.4 inactive; #2 113 inactive; #3 17.9 inactive

Sorted by “GFP, % of control” (ascending): 2 of the entries above.
target gene	siRNA no.	GFP, % of control	call
C3	1	98.5	inactive
Gtf3a	3	122	active
